From publication PMC6413339 (EBioMedicine, 2019)

What was measured:
[1] = test system: MOLM-14 (ITD, D835Y) cells; test: Antiproliferative activity (CellTitre-Blue, 72 h); format: cell-based; details: Homo sapiens, MOLM-14, 72 h, 72 h incubation, triplicates; read-out: IC50 (mean ±SD, nM) MOLM-14 (ITD, D835Y)
Protocol: (§1) Cells were seeded into 96-well tissue culture-treated plates at 2.0 × 10^4 cells/mL for up to 24 h. DMSO stock solutions of compounds were serially diluted first in DMSO and subsequently into RPMI before being added to the cell cultures in triplicates, with 10 μM being the highest tested concentration. The plates were incubated for 72 h as above. The CellTitre-Blue assay (Promega, Madison WI) was then added to the cultures and incubated a further 4 h before the fluorescence measured following the manufacturers recommendations. The fluorescence data from compounds were normalized to that DMSO and the resulting data fitted to a non-linear regression equation to obtain IC50 using GraphPad Prism 5.0 Software (La Jolla, CA, USA).

MV4–11 cells = test: Antiproliferative activity (CellTitre-Blue, 72 h); format: cell-based; details: Homo sapiens, MV4-11, 72 h, 72 h incubation, triplicates; read-out: IC50 (mean ±SD, nM) MV4–11
Protocol: as §1

IC50 [1]: 19.6 ± 0.3 nM
IC50 (MV4–11 cells): 18.5 ± 2.4 nM
Compound: CO[C@@H]1[C@H](N(C)C(=O)c2ccccc2)C[C@H]2O[C@]1(C)n1c3ccccc3c3c4c(c5c6ccccc6n2c5c31)C(=O)NC4 [Midostaurin, reference compound]
